Experimental data as given in PMC6712834, “SUMOylation regulates USP5-Cav3.2 calcium channel interactions” (Molecular Brain, 2019).
These are yes or no findings as the source states them, for the method shown. Binding seen in cells or lysates may run through a third protein. Some entries that bind do so weakly or less than the wild type.

Amino acid sequences for entries named in this document (tags omitted).
UniProt O95180: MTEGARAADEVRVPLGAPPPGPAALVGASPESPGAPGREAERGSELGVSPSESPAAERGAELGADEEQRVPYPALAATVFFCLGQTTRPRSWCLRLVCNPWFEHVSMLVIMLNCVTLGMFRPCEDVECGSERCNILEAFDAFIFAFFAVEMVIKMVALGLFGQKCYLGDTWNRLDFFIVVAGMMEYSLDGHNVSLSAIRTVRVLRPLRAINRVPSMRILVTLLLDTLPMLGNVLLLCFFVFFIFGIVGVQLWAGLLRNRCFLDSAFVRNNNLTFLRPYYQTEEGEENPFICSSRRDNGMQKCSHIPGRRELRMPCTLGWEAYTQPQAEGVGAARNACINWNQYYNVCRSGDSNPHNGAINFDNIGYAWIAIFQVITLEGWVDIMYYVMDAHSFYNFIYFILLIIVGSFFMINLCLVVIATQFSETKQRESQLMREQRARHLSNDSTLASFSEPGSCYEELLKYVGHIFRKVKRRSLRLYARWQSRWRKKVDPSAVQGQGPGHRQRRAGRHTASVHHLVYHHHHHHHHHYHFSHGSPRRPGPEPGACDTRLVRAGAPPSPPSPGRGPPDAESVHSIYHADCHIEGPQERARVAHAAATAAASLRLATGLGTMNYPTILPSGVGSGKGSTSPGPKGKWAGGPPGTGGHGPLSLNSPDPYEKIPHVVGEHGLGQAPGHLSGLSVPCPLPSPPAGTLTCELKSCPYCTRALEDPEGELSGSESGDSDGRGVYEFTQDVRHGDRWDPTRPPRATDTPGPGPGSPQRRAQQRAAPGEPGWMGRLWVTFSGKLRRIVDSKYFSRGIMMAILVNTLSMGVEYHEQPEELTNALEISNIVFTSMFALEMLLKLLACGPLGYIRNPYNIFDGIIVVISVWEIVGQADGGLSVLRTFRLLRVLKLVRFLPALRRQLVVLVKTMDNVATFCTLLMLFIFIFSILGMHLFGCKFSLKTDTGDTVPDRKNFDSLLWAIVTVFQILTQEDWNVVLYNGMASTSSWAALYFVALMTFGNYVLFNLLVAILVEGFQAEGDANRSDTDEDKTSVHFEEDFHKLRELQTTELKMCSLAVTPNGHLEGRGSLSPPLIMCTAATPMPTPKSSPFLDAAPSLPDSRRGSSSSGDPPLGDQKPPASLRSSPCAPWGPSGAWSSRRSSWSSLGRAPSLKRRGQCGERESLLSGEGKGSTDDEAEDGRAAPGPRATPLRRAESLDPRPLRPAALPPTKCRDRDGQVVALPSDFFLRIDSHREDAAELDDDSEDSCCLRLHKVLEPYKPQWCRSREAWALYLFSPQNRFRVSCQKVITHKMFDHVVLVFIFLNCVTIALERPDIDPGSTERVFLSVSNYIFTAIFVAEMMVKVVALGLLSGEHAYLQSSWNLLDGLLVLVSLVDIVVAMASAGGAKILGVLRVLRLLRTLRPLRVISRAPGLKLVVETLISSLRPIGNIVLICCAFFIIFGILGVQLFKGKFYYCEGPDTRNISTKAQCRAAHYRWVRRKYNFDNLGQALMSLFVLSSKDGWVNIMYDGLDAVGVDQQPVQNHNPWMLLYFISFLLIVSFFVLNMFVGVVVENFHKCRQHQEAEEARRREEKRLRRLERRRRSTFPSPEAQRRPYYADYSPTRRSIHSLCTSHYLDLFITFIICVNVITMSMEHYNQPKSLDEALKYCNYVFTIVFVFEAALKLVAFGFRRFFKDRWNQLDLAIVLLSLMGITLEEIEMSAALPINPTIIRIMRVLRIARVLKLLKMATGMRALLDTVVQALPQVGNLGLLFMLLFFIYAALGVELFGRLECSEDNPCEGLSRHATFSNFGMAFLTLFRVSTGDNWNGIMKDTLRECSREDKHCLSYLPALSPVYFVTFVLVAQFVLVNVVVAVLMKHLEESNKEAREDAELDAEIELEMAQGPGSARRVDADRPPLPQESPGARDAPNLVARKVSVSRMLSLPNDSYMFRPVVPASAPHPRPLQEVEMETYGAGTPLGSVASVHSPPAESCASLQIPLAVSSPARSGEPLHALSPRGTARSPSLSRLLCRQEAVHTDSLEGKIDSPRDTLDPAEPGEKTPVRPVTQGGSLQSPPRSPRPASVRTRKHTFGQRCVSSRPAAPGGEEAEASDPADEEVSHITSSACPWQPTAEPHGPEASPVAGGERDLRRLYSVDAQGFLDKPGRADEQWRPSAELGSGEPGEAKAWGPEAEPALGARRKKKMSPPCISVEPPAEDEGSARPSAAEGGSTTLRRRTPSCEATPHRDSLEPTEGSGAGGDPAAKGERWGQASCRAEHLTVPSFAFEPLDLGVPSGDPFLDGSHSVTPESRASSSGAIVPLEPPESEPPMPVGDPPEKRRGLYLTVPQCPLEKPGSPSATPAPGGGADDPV

Biological target: T1, Cav3.2-GFP tagged calcium channel (human, UniProt O95180 1-2353)
T1 construct: also called Cav3.2 T-type calcium channel; source: tsA-201 cells, transfected (lipofectamine 2000), in lysate; not shown: GFP, C-terminal, kept
Assay: co-IP; tsA-201 cells co-expressing Cav3.2-GFP and mCherry-USP5 (WT or K113R); lysed in modified RIPA buffer (50 mM Tris, 100 mM NaCl, 0.2% Triton X-100, 0.2% NP-40, 10 mM EDTA, pH 7.5); Cav3.2-GFP precipitated with anti-GFP antibody and Protein G/A beads overnight at 4 °C; blot probed with mCherry antibody; densitometry

mCherry tagged USP5 (ubiquitin specific peptidase 5), wild type (from UniProt P45974-1 1-858) (enzyme)
binding: binds
